In publication doi:10.1101/2024.03.04.583402:
These are yes or no findings as the source states them, for the method shown. In cells and extracts the contact can be indirect. Some results given as binding are weak or reduced against the parent protein; the word gives no strength.

Target: T1, retinoid X receptor α (UniProt P28700)
T1 sequence: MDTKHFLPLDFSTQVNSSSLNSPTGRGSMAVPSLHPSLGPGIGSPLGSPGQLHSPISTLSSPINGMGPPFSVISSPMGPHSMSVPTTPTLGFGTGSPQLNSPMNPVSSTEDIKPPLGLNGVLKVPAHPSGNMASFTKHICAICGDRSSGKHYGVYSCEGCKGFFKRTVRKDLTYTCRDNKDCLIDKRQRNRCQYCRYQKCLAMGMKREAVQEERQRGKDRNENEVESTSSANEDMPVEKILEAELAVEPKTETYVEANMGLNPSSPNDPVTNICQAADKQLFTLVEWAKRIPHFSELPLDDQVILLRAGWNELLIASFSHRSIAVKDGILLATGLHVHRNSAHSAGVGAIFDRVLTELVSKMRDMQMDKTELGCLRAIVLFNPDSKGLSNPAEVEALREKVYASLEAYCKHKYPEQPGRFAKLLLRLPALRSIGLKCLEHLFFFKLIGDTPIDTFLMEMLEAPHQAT
Test: co-IP

binding: binds
B1: ZBTB9 (protein, UniProt Q8CDC7 1-459)
chain: MDASTPLPPASSSPRCNPAPQTIHIEFPHHSSSLLESLNRHRLEGKFCDVSLLVQGRELRAHKAVLAAASPYFHDKLLLGDAPRLTLPNVIEADAFEGLLQLIYSGSLHLPLDALPAHLLVASGLQMWQVVDRCSEILRELETSGGISAGGRASSLTLISTTSSGGWCIRSSPFQNPVRSSASTENSVLPESPAGGEGSELEGMLQIQVKVEEEEEQGSAAPLFQTPQPERVSGGVSQACGSHPLPTPALPSKPSEDESSTVDPPAPPVQASQILYVNQENVECKEEIARGTKEKTKVLSGEDSEEKEELRYLLSSGGGESSGAGDPSWKPVDLHGNEILSGDGGPGGTGQAMHGPVKLGGTPPADGKCFACLCGKRFAVKPKRDRHIMLTFSLRPFGCGICNKRFKLKHHLTEHMKTHARALHACPHCGRRFRVQAFFLRHRDLCKGQGWPTYHWTYK
